# Experimental data published in the supplement of paper PMC8728848.
# This is one part of the list.
# B1: SUN4 (Saccharomyces cerevisiae), P53616 (protein)
# chain: MGSSHHHHHHSSGLVPRGSHNGSIYGDLADFSGPYEKFEDGTIPCGQFPSGQGVIPISWLDEGGWSGVENTDTSTGGSCKEGSYCSYACQPGMSKTQWPSDQPSDGRSIGGLLCKDGYLYRSNTDTDYLCEWGVDAAYVVSELSNDVAICRTDYPGTENMVIPTYVQAGDSLPLTVVDQDTYYTWQGLKTSAAYYVNNAGISVEDACVWGSSSSGVGNWAPLNFGAGSSDGVAYLSLIPNPNNGNALNFNVKIVAADDSSTVNGECIYENGSFSGGSDGCTVSVTAGKAKFVLYN
# Assays:
# Assay in all cases: glycan array binding signal (z-score within array); higher = stronger binding
# Details in all cases: glycan notation: IUPAC condensed, linker removed; mutation: Q318A
# [1] = target: Fuc(a1-2)[GalNAc(a1-3)]Gal(b1-3)GlcNAc(b1-3)GalNAc
# Summary of the method: (§1)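 The Consortium for Functional Glycomics database supplied 3228 glycan arrays, of which those lacking an available protein sequence were dropped. The binding signal, a within-array Z-score, was averaged across arrays of the same protein sequence and across linkers. Negative scores can be read as non-binding.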
# [2] = target: Fuc(a1-2)[GalNAc(a1-3)]Gal(b1-3)GlcNAc(b1-6)GalNAc
# Summary of the method: as §1
# [3] = target: Fuc(a1-2)[GalNAc(a1-3)]Gal(b1-4)Glc
# Summary of the method: as §1
# [4] = target: Fuc(a1-2)[GalNAc(a1-3)]Gal(b1-4)GlcNAc
# Summary of the method: as §1
# [5] = target: Fuc(a1-2)[GalNAc(a1-3)]Gal(b1-4)GlcNAc(b1-2)Man
# Summary of the method: as §1
# [6] = target: Fuc(a1-2)[GalNAc(a1-3)]Gal(b1-4)GlcNAc(b1-2)Man(a1-3)[Fuc(a1-2)[GalNAc(a1-3)]Gal(b1-4)GlcNAc(b1-2)Man(a1-6)]Man(b1-4)GlcNAc(b1-4)GlcNAc
# Summary of the method: as §1
# [7] = target: Fuc(a1-2)[GalNAc(a1-3)]Gal(b1-4)GlcNAc(b1-2)Man(a1-3)[Fuc(a1-2)[GalNAc(a1-3)]Gal(b1-4)GlcNAc(b1-2)Man(a1-6)]Man(b1-4)GlcNAc(b1-4)[Fuc(a1-6)]GlcNAc
# Summary of the method: as §1
# [8] = target: Fuc(a1-2)[GalNAc(a1-3)]Gal(b1-4)GlcNAc(b1-3)Gal(b1-4)GlcNAc
# Summary of the method: as §1
# [9] = target: Fuc(a1-2)[GalNAc(a1-3)]Gal(b1-4)GlcNAc(b1-3)Gal(b1-4)GlcNAc(b1-3)Gal(b1-4)GlcNAc
# Summary of the method: as §1
# [10] = target: Fuc(a1-2)[GalNAc(a1-3)]Gal(b1-4)GlcNAc(b1-3)GalNAc
# Summary of the method: as §1
# [11] = target: Fuc(a1-2)[GalNAc(a1-3)]Gal(b1-4)GlcNAc(b1-3)[Fuc(a1-2)[GalNAc(a1-3)]Gal(b1-4)GlcNAc(b1-6)]GalNAc
# Summary of the method: as §1
# [12] = target: Fuc(a1-2)[GalNAc(a1-3)]Gal(b1-4)GlcNAc(b1-6)GalNAc
# Summary of the method: as §1
# [13] = target: Fuc(a1-2)[GalNAc(a1-3)]Gal(b1-4)[Fuc(a1-3)]GlcNAc
# Summary of the method: as §1
# [14] = target: Fuc(a1-2)[GalNAc(a1-3)]Gal(b1-4)[Fuc(a1-3)]GlcNAc(b1-3)GalNAc
# Summary of the method: as §1
# [15] = target: Fuc(a1-2)[GalNAc(a1-4)]Gal(b1-4)GlcNAc
# Summary of the method: as §1
# [16] = target: Fuc(a1-2)[GalNAc(b1-3)]Gal
# Summary of the method: as §1
# Fuc(a1-3)GlcNAc = target: Fuc(a1-3)GlcNAc
# Summary of the method: as §1
# [17] = target: Fuc(a1-3)[Gal(b1-4)]Glc6S
# Summary of the method: as §1
# [18] = target: Fuc(a1-3)[Gal(b1-4)]GlcNAc
# Summary of the method: as §1
# [19] = target: Fuc(a1-3)[Gal(b1-4)]GlcNAc(b1-2)Man
# Summary of the method: as §1
# [20] = target: Fuc(a1-3)[Gal(b1-4)]GlcNAc(b1-2)Man(a1-3)[Fuc(a1-3)[Gal(b1-4)]GlcNAc(b1-2)Man(a1-6)]Man(b1-4)GlcNAc(b1-4)GlcNAc
# Summary of the method: as §1
# [21] = target: Fuc(a1-3)[Gal(b1-4)]GlcNAc(b1-2)Man(a1-3)[Fuc(a1-3)[Gal(b1-4)]GlcNAc(b1-2)Man(a1-6)]Man(b1-4)GlcNAc(b1-4)[Fuc(a1-6)]GlcNAc
# Summary of the method: as §1
# [22] = target: Fuc(a1-3)[Gal(b1-4)]GlcNAc(b1-3)Gal(b1-3)[Fuc(a1-4)]GlcNAc
# Summary of the method: as §1
# [23] = target: Fuc(a1-3)[Gal(b1-4)]GlcNAc(b1-3)Gal(b1-4)[Fuc(a1-3)]GlcNAc
# Summary of the method: as §1
# [24] = target: Fuc(a1-3)[Gal(b1-4)]GlcNAc(b1-3)Gal(b1-4)[Fuc(a1-3)]GlcNAc(b1-3)Gal(b1-4)[Fuc(a1-3)]GlcNAc
# Summary of the method: as §1
# [25] = target: Fuc(a1-3)[Gal(b1-4)]GlcNAc(b1-3)GalNAc
# Summary of the method: as §1
# [26] = target: Fuc(a1-3)[Gal(b1-4)]GlcNAc(b1-6)GalNAc
# Summary of the method: as §1
# [27] = target: Fuc(a1-3)[Gal(b1-4)]GlcNAc(b1-6)[Gal(b1-3)GlcNAc(b1-3)]Gal(b1-4)Glc
# Summary of the method: as §1
# [28] = target: Fuc(a1-3)[Gal(b1-4)]GlcNAc6S
# Summary of the method: as §1
# [29] = target: Fuc(a1-3)[Gal3S(b1-4)]Glc
# Summary of the method: as §1
# [30] = target: Fuc(a1-3)[Gal3S(b1-4)]GlcNAc
# Summary of the method: as §1
# [31] = target: Fuc(a1-3)[Gal3S(b1-4)]GlcNAc6S
# Summary of the method: as §1
# [32] = target: Fuc(a1-3)[GalNAc(b1-4)]GlcNAc
# Summary of the method: as §1
# [33] = target: Fuc(a1-3)[GalNAc(b1-4)]GlcNAc6S
# Summary of the method: as §1
# Fuc(a1-4)GlcNAc = target: Fuc(a1-4)GlcNAc
# Summary of the method: as §1
# Fuc(b1-3)GlcNAc = target: Fuc(b1-3)GlcNAc
# Summary of the method: as §1
# Gal(a1-2)Gal = target: Gal(a1-2)Gal
# Summary of the method: as §1
binder,measurement,setting,value
B1,glycan array binding signal (z-score),[1],1.37
same,glycan array binding signal (z-score),[2],-1.18
same,glycan array binding signal (z-score),[3],-0.617
same,glycan array binding signal (z-score),[4],-0.844
same,glycan array binding signal (z-score),[5],-0.198
same,glycan array binding signal (z-score),[6],0.618
same,glycan array binding signal (z-score),[7],-0.177
same,glycan array binding signal (z-score),[8],0.152
same,glycan array binding signal (z-score),[9],0.884
same,glycan array binding signal (z-score),[10],0.641
same,glycan array binding signal (z-score),[11],-0.974
same,glycan array binding signal (z-score),[12],0.511
same,glycan array binding signal (z-score),[13],0.234
same,glycan array binding signal (z-score),[14],0.567
same,glycan array binding signal (z-score),[15],-0.125
same,glycan array binding signal (z-score),[16],-0.099
same,glycan array binding signal (z-score),Fuc(a1-3)GlcNAc,0.527
same,glycan array binding signal (z-score),[17],0.576
same,glycan array binding signal (z-score),[18],-0.357
same,glycan array binding signal (z-score),[19],0.186
same,glycan array binding signal (z-score),[20],-0.338
same,glycan array binding signal (z-score),[21],0.353
same,glycan array binding signal (z-score),[22],-0.516
same,glycan array binding signal (z-score),[23],-0.618
same,glycan array binding signal (z-score),[24],-0.719
same,glycan array binding signal (z-score),[25],0.852
same,glycan array binding signal (z-score),[26],-0.085
same,glycan array binding signal (z-score),[27],-1.78
same,glycan array binding signal (z-score),[28],0.316
same,glycan array binding signal (z-score),[29],-0.004
same,glycan array binding signal (z-score),[30],0.058
same,glycan array binding signal (z-score),[31],0.353
same,glycan array binding signal (z-score),[32],-0.319
same,glycan array binding signal (z-score),[33],-0.724
same,glycan array binding signal (z-score),Fuc(a1-4)GlcNAc,-0.379
same,glycan array binding signal (z-score),Fuc(b1-3)GlcNAc,0.194
same,glycan array binding signal (z-score),Gal(a1-2)Gal,-0.951

# An excerpt of the results above:
binder,measurement,setting,value
B1,glycan array binding signal (z-score),[16],-0.099
same,glycan array binding signal (z-score),Fuc(a1-3)GlcNAc,0.527
